Our source for the binding signal values is paper PMC7819943, “Rice protein-binding microarrays: a tool to detect cis-acting elements near promoter regions in rice”.

Chains of the proteins cited; added tags and fusions are not shown.
UniProt Q0JBA9, entry or part of it: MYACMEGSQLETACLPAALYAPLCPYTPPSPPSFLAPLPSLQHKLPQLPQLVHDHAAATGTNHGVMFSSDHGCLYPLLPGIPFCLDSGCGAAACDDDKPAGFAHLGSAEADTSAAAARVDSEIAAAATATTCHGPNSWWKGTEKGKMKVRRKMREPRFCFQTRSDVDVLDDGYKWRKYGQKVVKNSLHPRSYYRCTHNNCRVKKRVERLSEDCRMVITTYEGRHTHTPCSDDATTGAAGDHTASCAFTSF

This is one part of the list.

The target of the experiment is OsWRKY34 (Oryza sativa, UniProt Q0JBA9 1-250). As to the kind of experiment: protein-binding microarray (RPBM); PBS, 2% BSA, 51.3 ng/ul salmon testes DNA, 50 uM zinc acetate, 200 nM TF, 25 C, 1 h; high values mean tight binding. Conditions: protein: recombinant; tags: N-terminal polyhistidine and DsRed monomer fusion (pET32a); label: CyDye5-dUTP incorporated in the synthesized complementary strand; 3' TTTTT single-stranded linker to array surface; dsDNA, one strand shown. The procedure, abridged:
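Transcription factors were made in E. coli BL21-CodonPlus as N-terminal fusions to a polyhistidine tag and DsRed, then purified on Ni–NTA. After primer extension with Cy5-dUTP and blocking with 2% BSA, a custom Agilent array was exposed for 1 h at 25 °C to 200 nM protein in PBS, 2% BSA, salmon testes DNA and 50 µM zinc acetate. Washed arrays were scanned on an Axon 4000B, and the binding signal is per-feature fluorescence intensity in arbitrary units.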
“AAGGCCCGCCCAATTCCTCTTGCATGTATGTGTTTGTAGGCGGAGTCACCTAGTGCAG”: the binding signal is 8420 fluorescence intensity (a.u.). In the case of “CACTTGCTAATCACTCTCACTCTCATCTTAGCTTGTCCATCGGAGTCACCTAGTGCAG” it was 8820 fluorescence intensity (a.u.); in that of “TGGACAAGTTGTGTGTGAGCTATTCTGCCTTTTATACTTCCGGAGTCACCTAGTGCAG”, 11900 fluorescence intensity (a.u.). Take “TCTCTCGACCGCTCGTCTCTCTCGACTGCTTCGTCGCTCCCGGAGTCACCTAGTGCAG”: the binding signal was 9060 fluorescence intensity (a.u.). In the case of “GATGTGAACCTGCAGTGCTATCCTTATCCTCTGTCCCAAACGGAGTCACCTAGTGCAG” it was 9210 fluorescence intensity (a.u.); in that of “GGTCGTTGTCATTGATTCTTATGCTTGTATTTGACTATTCCGGAGTCACCTAGTGCAG”, 12600 fluorescence intensity (a.u.). In the case of “CTCTCTCCCGCCAACGCCCAAGTCCCACCTATTAATCTCCCGGAGTCACCTAGTGCAG” it was 8750 fluorescence intensity (a.u.); in that of “GGATGCCACTTGAACGATAATTTTGACGATATTTTTGTAACGGAGTCACCTAGTGCAG”, 8050 fluorescence intensity (a.u.); in that of “ATACTATTAATACCTGATCCCACCTGTCATACACACGTTACGGAGTCACCTAGTGCAG”, 9500 fluorescence intensity (a.u.).

For the sequence “AACCCACACGAGCTACCTATCCATCGTCCTAGCTATCTCACGGAGTCACCTAGTGCAG”, the binding signal is 11800 fluorescence intensity (a.u.). On to “CACACACTCGGACACACATCTCCAATCTTGAGCACACAGCCGGAGTCACCTAGTGCAG”, for which the binding signal was 9460 fluorescence intensity (a.u.). In the case of “AGCCTTCCAGCCGGACAGTTAGTTTCTTTTAGGTCGGTTCCGGAGTCACCTAGTGCAG” it was 8070 fluorescence intensity (a.u.); in that of “TCTCCATTTCTCACATGAGTCTCCTACATAGCGCTTAGCACGGAGTCACCTAGTGCAG”, 8540 fluorescence intensity (a.u.). In the case of “GCTTAGCTGATGAATCTTGACTTTGTTTGCATGTCCTTCCCGGAGTCACCTAGTGCAG” it was 10800 fluorescence intensity (a.u.); in that of “AGTTCTAATTAGTTTCAACTCGTACACGTAATTGCAATAACGGAGTCACCTAGTGCAG”, 8300 fluorescence intensity (a.u.); in that of “CCAGTATAATCATTGACTTTTGTGTGCTTAATGCATTTTCCGGAGTCACCTAGTGCAG”, 11800 fluorescence intensity (a.u.). In the case of “CCGCCACCACCCCACTCCGACGACCACCTCCGCGCGCTCTCGGAGTCACCTAGTGCAG” it was 11400 fluorescence intensity (a.u.); in that of “TATCCCTCATCTCTGCGCGCCGCCGCCGCCGCCACCTCTCCGGAGTCACCTAGTGCAG”, 8270 fluorescence intensity (a.u.). Take “GCCGACCTCGCACGGGCCTCCGCCGCCTCGTCACCGGCCGCGGAGTCACCTAGTGCAG”: the binding signal was 9710 fluorescence intensity (a.u.).

Consider “CTCCAATCCGTTACTCGTTTATTCGTATCTCCTCCCAATTCGGAGTCACCTAGTGCAG”, for which the binding signal is 11800 fluorescence intensity (a.u.).

For the sequence “CTTCTTCGATTCCCACGTGGCACACCGACGGCGCGATCAACGGAGTCACCTAGTGCAG”, the binding signal is 8140 fluorescence intensity (a.u.). On to “CAAAGTCCGGAATATTGTCGTCTTCCACTTCATCTTCTTCCGGAGTCACCTAGTGCAG”, for which the binding signal was 12700 fluorescence intensity (a.u.).

Turning to “AGCTTTAATTCAACGTCCTAATATTTAATCCGTTTGTTTACGGAGTCACCTAGTGCAG”, the binding signal is 8140 fluorescence intensity (a.u.). In the case of “GCCTGTCACCATCACCTGACCCATATCCCTTCAACTTGCACGGAGTCACCTAGTGCAG” it was 9610 fluorescence intensity (a.u.); in that of “CACCACCAACGCGCTTCTTCTTCACCTCTCCAATCCCCTTCGGAGTCACCTAGTGCAG”, 10100 fluorescence intensity (a.u.). Turning to “ATTTCCTTTTGATTAAATTATAATTTAGTGGATGTTTTTACGGAGTCACCTAGTGCAG”, the binding signal was 8380 fluorescence intensity (a.u.).

Turning to “ACAGCTTCTTCCCACGCCGCCGCCGCCGCCTAGCTTCTTCCGGAGTCACCTAGTGCAG”, the binding signal was 8880 fluorescence intensity (a.u.). In the case of “ACCATACTTAAGCTCCACTCCTTTTAGCATTGTCGGAGAACGGAGTCACCTAGTGCAG” it was 8440 fluorescence intensity (a.u.). In the case of “TTACTTGGACTCAGTAAGTGGTATTATTATTTATGTTTCTCGGAGTCACCTAGTGCAG” it was 11000 fluorescence intensity (a.u.); in that of “TATGTTATTGTTCATGTTTGTCATGCTTTGACCTTGTTCGCGGAGTCACCTAGTGCAG”, 8980 fluorescence intensity (a.u.); in that of “GAAGACGACATTGCAGTTGTAGTTGGGACCCGCCACACCCCGGAGTCACCTAGTGCAG”, 8030 fluorescence intensity (a.u.).

Regarding “TCTGTGGGTTGAGGGAGGTGATTCAATTAGGAGCAAGAAACGGAGTCACCTAGTGCAG”, the binding signal was 8940 fluorescence intensity (a.u.). In the case of “AGCTGTGTTAGGGTGTGTTTGGTTGGTGGGATATACCTGGCGGAGTCACCTAGTGCAG” it was 8580 fluorescence intensity (a.u.); in that of “TTTTTACACTGCCACGTCACTACCCACCCGACACTTAATTCGGAGTCACCTAGTGCAG”, 12800 fluorescence intensity (a.u.); in that of “CCGGCGACCCGCACCCACCATGGGCTCTTCGCGCGCGCCACGGAGTCACCTAGTGCAG”, 8160 fluorescence intensity (a.u.). Regarding “TCTACTTGGCACCACCACATCGATGCGAGCTAACTAAACACGGAGTCACCTAGTGCAG”, the binding signal is 9330 fluorescence intensity (a.u.).

As to “GTCCTTTTACTACACTGCATTGCATTTGCACTGTCATTTCCGGAGTCACCTAGTGCAG”, the binding signal was 8320 fluorescence intensity (a.u.). In the case of “CTATTCTCCTTTTTATTTTTTAATATGCCTTCATGTCCGTCGGAGTCACCTAGTGCAG” it was 8530 fluorescence intensity (a.u.); in that of “ATGTATATTTGCTTTAGTTTGTATCATCTTATACTAATATCGGAGTCACCTAGTGCAG”, 8610 fluorescence intensity (a.u.). In the case of “CTGTGCTTTGTTGGGTTTGTCTGCGATGCCGATTCAATTACGGAGTCACCTAGTGCAG” it was 8840 fluorescence intensity (a.u.). As to “TTATTCCTTTCCAATTTATTCTCCATTGTCTCCTTAGTTTCGGAGTCACCTAGTGCAG”, the binding signal was 9340 fluorescence intensity (a.u.). In the case of “TGCACAGTTCCACCAGACTCCATCGCCATCGCCATCGCCACGGAGTCACCTAGTGCAG” it was 8480 fluorescence intensity (a.u.).
